Measured values reported in the supplement of paper PMC12823440, “Inhibitors supercharge kinase turnover through native proteolytic circuits” (Nature, 2025).
Where a name gives a salt, the structure may show the parent alone. This is one part of the list. The calls rarely recur for the same compound in another form.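 Kinases, fused to nanoluciferase, were expressed in K562 cells; luminescence was measured every 4 h from 2 to 18 h as percent of control (DMSO = 100%, positive control = 0%). A time point is decreased if signal falls significantly (2 sigma). Hits were called by the authors by a rule that is not shown; the count of time points alone does not decide it.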

Amino acid sequences for entries named in this document (tags omitted).
UniProt P29317, whole entry: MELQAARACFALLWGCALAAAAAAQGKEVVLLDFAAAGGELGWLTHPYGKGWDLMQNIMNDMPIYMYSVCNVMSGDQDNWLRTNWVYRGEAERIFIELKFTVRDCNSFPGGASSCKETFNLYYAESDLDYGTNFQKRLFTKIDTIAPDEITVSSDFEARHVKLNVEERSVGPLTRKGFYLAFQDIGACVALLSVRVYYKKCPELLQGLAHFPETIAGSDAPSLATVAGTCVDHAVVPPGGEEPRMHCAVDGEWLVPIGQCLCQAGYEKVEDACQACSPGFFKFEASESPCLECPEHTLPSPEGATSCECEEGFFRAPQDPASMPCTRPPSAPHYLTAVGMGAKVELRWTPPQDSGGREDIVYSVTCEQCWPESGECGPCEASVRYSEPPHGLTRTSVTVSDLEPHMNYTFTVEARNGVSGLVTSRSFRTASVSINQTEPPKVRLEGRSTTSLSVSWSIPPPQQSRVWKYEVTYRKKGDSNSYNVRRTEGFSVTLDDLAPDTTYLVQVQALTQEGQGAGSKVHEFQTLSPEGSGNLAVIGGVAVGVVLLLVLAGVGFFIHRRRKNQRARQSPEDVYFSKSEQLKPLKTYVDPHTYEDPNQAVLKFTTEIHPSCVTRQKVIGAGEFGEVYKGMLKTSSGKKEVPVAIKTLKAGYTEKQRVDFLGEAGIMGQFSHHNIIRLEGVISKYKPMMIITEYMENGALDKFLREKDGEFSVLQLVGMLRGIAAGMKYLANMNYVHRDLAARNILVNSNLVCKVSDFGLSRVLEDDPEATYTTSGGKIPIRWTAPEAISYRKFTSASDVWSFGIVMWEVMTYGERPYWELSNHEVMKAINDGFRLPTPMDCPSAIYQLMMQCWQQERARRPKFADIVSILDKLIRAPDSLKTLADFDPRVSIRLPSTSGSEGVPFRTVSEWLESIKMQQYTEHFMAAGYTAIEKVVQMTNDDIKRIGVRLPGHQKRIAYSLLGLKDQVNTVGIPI
UniProt P21860, whole entry: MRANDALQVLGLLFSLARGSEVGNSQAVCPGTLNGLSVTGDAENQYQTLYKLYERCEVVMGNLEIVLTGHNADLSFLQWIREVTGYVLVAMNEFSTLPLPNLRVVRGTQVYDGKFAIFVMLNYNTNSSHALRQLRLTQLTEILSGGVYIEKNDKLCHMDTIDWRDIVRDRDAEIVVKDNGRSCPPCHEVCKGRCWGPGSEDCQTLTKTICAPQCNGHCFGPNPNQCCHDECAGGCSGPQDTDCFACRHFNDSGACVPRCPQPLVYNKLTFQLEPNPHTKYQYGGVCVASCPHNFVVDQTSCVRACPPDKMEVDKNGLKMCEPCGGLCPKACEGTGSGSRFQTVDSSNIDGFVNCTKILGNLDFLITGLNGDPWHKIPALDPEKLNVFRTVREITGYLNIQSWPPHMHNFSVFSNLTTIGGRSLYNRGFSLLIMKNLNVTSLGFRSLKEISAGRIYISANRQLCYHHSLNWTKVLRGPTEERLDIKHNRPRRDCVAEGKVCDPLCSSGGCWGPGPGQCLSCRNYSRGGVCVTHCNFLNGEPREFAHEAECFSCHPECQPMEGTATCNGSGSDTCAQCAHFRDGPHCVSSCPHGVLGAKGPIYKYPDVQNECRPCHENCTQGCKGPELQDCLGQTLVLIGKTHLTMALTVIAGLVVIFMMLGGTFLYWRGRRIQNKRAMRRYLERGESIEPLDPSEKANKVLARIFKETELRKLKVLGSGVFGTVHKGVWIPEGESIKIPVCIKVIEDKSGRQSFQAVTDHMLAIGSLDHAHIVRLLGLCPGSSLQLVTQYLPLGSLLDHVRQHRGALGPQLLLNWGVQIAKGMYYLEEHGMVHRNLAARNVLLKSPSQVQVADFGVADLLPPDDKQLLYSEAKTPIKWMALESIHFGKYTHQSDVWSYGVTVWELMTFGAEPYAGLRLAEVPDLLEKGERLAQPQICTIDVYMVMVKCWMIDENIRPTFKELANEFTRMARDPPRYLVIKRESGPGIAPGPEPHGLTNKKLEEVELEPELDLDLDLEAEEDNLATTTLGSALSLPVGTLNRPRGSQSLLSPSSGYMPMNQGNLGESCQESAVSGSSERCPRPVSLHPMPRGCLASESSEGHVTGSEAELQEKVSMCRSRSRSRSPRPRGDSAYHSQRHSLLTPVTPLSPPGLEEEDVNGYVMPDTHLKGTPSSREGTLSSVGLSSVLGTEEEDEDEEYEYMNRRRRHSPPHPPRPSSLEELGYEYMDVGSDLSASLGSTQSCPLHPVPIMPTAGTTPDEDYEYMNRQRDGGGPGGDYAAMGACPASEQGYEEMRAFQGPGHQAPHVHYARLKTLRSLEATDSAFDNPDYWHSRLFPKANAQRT
UniProt Q15303, whole entry R711C: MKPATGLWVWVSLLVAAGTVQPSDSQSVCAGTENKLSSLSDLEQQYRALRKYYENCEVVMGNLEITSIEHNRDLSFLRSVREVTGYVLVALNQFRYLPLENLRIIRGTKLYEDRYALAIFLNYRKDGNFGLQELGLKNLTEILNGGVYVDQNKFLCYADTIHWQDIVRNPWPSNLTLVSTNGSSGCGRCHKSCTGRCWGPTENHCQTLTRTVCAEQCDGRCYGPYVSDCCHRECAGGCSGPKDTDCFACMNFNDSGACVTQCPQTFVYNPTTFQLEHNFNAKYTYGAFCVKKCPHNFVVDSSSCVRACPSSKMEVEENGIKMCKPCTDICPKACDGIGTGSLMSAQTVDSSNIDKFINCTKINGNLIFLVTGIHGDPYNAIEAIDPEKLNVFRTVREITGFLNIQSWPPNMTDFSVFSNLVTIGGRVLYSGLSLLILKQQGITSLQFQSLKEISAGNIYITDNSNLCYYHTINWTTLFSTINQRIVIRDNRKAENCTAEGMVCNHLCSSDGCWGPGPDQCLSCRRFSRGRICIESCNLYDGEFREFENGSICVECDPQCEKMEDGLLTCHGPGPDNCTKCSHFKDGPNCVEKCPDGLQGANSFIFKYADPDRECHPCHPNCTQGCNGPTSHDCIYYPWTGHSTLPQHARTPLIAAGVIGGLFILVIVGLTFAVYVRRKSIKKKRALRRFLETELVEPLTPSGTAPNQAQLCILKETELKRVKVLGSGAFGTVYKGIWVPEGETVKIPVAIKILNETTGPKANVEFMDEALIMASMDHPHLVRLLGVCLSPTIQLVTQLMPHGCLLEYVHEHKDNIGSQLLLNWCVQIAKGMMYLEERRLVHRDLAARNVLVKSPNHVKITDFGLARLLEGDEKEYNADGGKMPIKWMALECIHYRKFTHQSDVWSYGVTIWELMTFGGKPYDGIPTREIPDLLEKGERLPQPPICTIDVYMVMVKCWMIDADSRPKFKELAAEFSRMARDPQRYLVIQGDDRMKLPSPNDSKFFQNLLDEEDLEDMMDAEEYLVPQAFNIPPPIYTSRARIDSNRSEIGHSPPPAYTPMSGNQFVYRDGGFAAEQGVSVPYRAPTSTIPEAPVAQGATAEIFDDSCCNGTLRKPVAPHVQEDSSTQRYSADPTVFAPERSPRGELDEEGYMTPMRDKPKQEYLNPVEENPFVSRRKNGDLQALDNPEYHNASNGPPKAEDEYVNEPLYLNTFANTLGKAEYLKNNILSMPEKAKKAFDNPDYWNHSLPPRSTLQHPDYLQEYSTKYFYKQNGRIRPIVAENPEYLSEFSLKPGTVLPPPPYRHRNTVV

Assays:
Assay in all cases: kinase-Nluc reporter destabilization hit call (1 = scored as downregulated) (binary); higher = compound decreases kinase abundance
Conditions in all cases: K562; 2-18 h
EGFR = EGFR (UniProt P00533)
EGFR_G719S = EGFR_G719S (UniProt P00533)
EGFR_G719S_T790M = EGFR_G719S_T790M (UniProt P00533)
EGFR_L718V = EGFR_L718V (UniProt P00533)
EGFR_L858R = EGFR_L858R (UniProt P00533)
EGFR_L861Q = EGFR_L861Q (UniProt P00533)
EGFR_T790M = EGFR_T790M (UniProt P00533)
EPHA2 = EPHA2 (UniProt P29317)
ERBB3 = ERBB3 (UniProt P21860)
[1] = biological target: ERBB4_R711C (clone: ERBB4_mut) (UniProt Q15303)

Measured: kinase-Nluc reporter destabilization hit call

CO[C@H]1C[C@@H]2CC[C@@H](C)[C@@](O)(O2)C(=O)C(=O)N2CCCC[C@H]2C(=O)O[C@H]([C@H](C)C[C@@H]2CC[C@@H](OCCO)[C@H](OC)C2)CC(=O)[C@H](C)/C=C(\C)[C@@H](O)[C@@H](OC)C(=O)[C@H](C)C[C@H](C)/C=C/C=C/C=C/1C [Everolimus] (10 µM)
inactive: EGFR 0 | EGFR_G719S 0 | EGFR_G719S_T790M 0 | EGFR_L718V 0 | EGFR_L858R 0 | EGFR_L861Q 0 | EGFR_T790M 0 | EPHA2 = 0 | ERBB3 = 0 | [1] 0

CCn1c(-c2nonc2N)nc2c(C#CC(C)(C)O)ncc(OC[C@H]3CCCNC3)c21 (10 µM)
inactive: EGFR 0 | EGFR_G719S 0 | EGFR_G719S_T790M 0 | EGFR_L718V 0 | EGFR_L858R 0 | EGFR_L861Q 0 | EGFR_T790M 0 | EPHA2 = 0 | ERBB3 = 0 | [1] 0

Nc1nc(N)c2nc(-c3cccc(O)c3)c(-c3cccc(O)c3)nc2n1 (10 µM)
inactive: EGFR 0 | EGFR_G719S 0 | EGFR_G719S_T790M 0 | EGFR_L718V 0 | EGFR_L858R 0 | EGFR_L861Q 0 | EGFR_T790M 0 | EPHA2 = 0 | ERBB3 = 0 | [1] 0

COc1cc2c(cc1OC)/C(=C/c1ccc(O)cc1)C(=O)N2 (10 µM)
inactive: EGFR 0 | EGFR_G719S 0 | EGFR_G719S_T790M 0 | EGFR_L718V 0 | EGFR_L858R 0 | EGFR_L861Q 0 | EGFR_T790M 0 | EPHA2 = 0 | ERBB3 = 0 | [1] 0

COc1ccc2c(Oc3ccc4c(C(=O)Nc5ccccc5N)cccc4c3)ccnc2c1 [Chiauranib] (10 µM)
inactive: EGFR 0 | EGFR_G719S 0 | EGFR_G719S_T790M 0 | EGFR_L718V 0 | EGFR_L858R 0 | EGFR_L861Q 0 | EGFR_T790M 0 | EPHA2 = 0 | ERBB3 = 0 | [1] 0

COc1cc(F)ccc1-c1ncnc(Nc2cccc(C[S@](C)(=N)=O)c2)n1 [Atuveciclib] (2.5 µM)
inactive: EGFR 0 | EGFR_G719S 0 | EGFR_G719S_T790M 0 | EGFR_L718V 0 | EGFR_L858R 0 | EGFR_L861Q 0 | EGFR_T790M 0 | EPHA2 = 0 | ERBB3 = 0 | [1] 0

Cc1cc(CSc2ccccc2C(=O)NCCNc2ccc(C(F)(F)F)cc2[N+](=O)[O-])on1 (10 µM)
inactive: EGFR 0 | EGFR_G719S 0 | EGFR_G719S_T790M 0 | EGFR_L718V 0 | EGFR_L858R 0 | EGFR_L861Q 0 | EGFR_T790M 0 | EPHA2 = 0 | ERBB3 = 0 | [1] 0

Cc1c(Cl)cccc1S(=O)(=O)Nc1nc(NCCc2ccccc2)nc2c1CN(Cc1ccccc1)CC2 (2.5 µM)
inactive: EGFR 0 | EGFR_G719S 0 | EGFR_G719S_T790M 0 | EGFR_L718V 0 | EGFR_L858R 0 | EGFR_L861Q 0 | EGFR_T790M 0 | EPHA2 = 0 | ERBB3 = 0 | [1] 0

O=C(O)c1cc(N(Cc2ccccc2O)Cc2cc(O)ccc2O)ccc1O [Lavendustin A] (10 µM)
inactive: EGFR 0 | EGFR_G719S 0 | EGFR_G719S_T790M 0 | EGFR_L718V 0 | EGFR_L858R 0 | EGFR_L861Q 0 | EGFR_T790M 0 | EPHA2 = 0 | ERBB3 = 0 | [1] 0

C=CC(=O)Nc1cc(Nc2nccc(-c3cn(C)c4ccccc34)n2)c(OC)cc1N(C)CCNC [AZ7550 Mesylate] (2.5 µM)
inactive: EGFR 0 | EGFR_G719S 0 | EGFR_G719S_T790M 0 | EGFR_L718V 0 | EGFR_L858R 0 | EGFR_L861Q 0 | EGFR_T790M 0 | EPHA2 = 0 | ERBB3 = 0 | [1] 0

CC(C)n1ncnc1-c1cn2c(n1)-c1ccc(O[C@@H](C)C(N)=O)cc1OCC2 (10 µM)
inactive: EGFR 0 | EGFR_G719S 0 | EGFR_G719S_T790M 0 | EGFR_L718V 0 | EGFR_L858R 0 | EGFR_L861Q 0 | EGFR_T790M 0 | EPHA2 = 0 | ERBB3 = 0 | [1] 0

CC1(N)CCN(c2cccnc2NC(=O)c2nc(-c3ncccc3C(F)(F)F)cnc2N)CC1 [Darovasertib] (10 µM)
inactive: EGFR 0 | EGFR_G719S 0 | EGFR_G719S_T790M 0 | EGFR_L718V 0 | EGFR_L858R 0 | EGFR_L861Q 0 | EGFR_T790M 0 | EPHA2 = 0 | ERBB3 = 0 | [1] 0

CC1=C(C(=O)Nc2cc3cn[nH]c3cc2F)C(c2ccc(C(F)(F)F)cc2)CC(=O)N1 (stereo not given) (10 µM)
inactive: EGFR 0 | EGFR_G719S 0 | EGFR_G719S_T790M 0 | EGFR_L718V 0 | EGFR_L858R 0 | EGFR_L861Q 0 | EGFR_T790M 0 | EPHA2 = 0 | ERBB3 = 0 | [1] 0

Cc1nn(C)cc1-c1nc2c(N3CCN(Cc4ccc(Cl)cc4)CC3)c(Cl)cnc2[nH]1 (10 µM)
inactive: EGFR 0 | EGFR_G719S 0 | EGFR_G719S_T790M 0 | EGFR_L718V 0 | EGFR_L858R 0 | EGFR_L861Q 0 | EGFR_T790M 0 | EPHA2 = 0 | ERBB3 = 0 | [1] 0

O=C(NCCO)c1cc(C(=O)NCCO)cc(C(=O)NCCO)c1 (10 µM)
inactive: EGFR 0 | EGFR_G719S 0 | EGFR_G719S_T790M 0 | EGFR_L718V 0 | EGFR_L858R 0 | EGFR_L861Q 0 | EGFR_T790M 0 | EPHA2 = 0 | ERBB3 = 0 | [1] 0

N[C@@H]1CCCN(c2c(/C=C3\SC(=O)NC3=O)cccc2-c2ccccc2)C1 (10 µM)
inactive: EGFR 0 | EGFR_G719S 0 | EGFR_G719S_T790M 0 | EGFR_L718V 0 | EGFR_L858R 0 | EGFR_L861Q 0 | EGFR_T790M 0 | EPHA2 = 0 | ERBB3 = 0 | [1] 0

Cc1cc(Nc2cc(N3CCN(C)CC3)nc(Nc3ccc([N+](=O)[O-])cc3)n2)n[nH]1 (2.5 µM)
inactive: EGFR 0 | EGFR_G719S 0 | EGFR_G719S_T790M 0 | EGFR_L718V 0 | EGFR_L858R 0 | EGFR_L861Q 0 | EGFR_T790M 0 | EPHA2 = 0 | ERBB3 = 0 | [1] 0

CO[C@H]1C[C@@H]2CC[C@@H](C)[C@@](O)(O2)C(=O)C(=O)N2CCCC[C@H]2C(=O)O[C@H]([C@H](C)C[C@@H]2CC[C@@H](OC(=O)C(C)(CO)CO)[C@H](OC)C2)CC(=O)[C@H](C)/C=C(\C)[C@@H](O)[C@@H](OC)C(=O)[C@H](C)C[C@H](C)/C=C/C=C/C=C/1C [Temsirolimus] (2.5 µM)
inactive: EGFR 0 | EGFR_G719S 0 | EGFR_G719S_T790M 0 | EGFR_L718V 0 | EGFR_L858R 0 | EGFR_L861Q 0 | EGFR_T790M 0 | EPHA2 = 0 | ERBB3 = 0 | [1] 0

O=C(NCCN1CCOCC1)Nc1nc2ccc(Sc3nnc4ccc(-c5ccc(F)cc5)nn34)cc2s1 (10 µM)
inactive: EGFR 0 | EGFR_G719S 0 | EGFR_G719S_T790M 0 | EGFR_L718V 0 | EGFR_L858R 0 | EGFR_L861Q 0 | EGFR_T790M 0 | EPHA2 = 0 | ERBB3 = 0 | [1] 0

c1nn(C2CCOCC2)cc1Nc1ncc2nnn(-c3ccc4cn[nH]c4c3)c2n1 (10 µM)
inactive: EGFR 0 | EGFR_G719S 0 | EGFR_G719S_T790M 0 | EGFR_L718V 0 | EGFR_L858R 0 | EGFR_L861Q 0 | EGFR_T790M 0 | EPHA2 = 0 | ERBB3 = 0 | [1] 0

Cc1cc(C)cc(NC(N)=Nc2ccccc2C(F)(F)F)c1 (10 µM)
inactive: EGFR 0 | EGFR_G719S 0 | EGFR_G719S_T790M 0 | EGFR_L718V 0 | EGFR_L858R 0 | EGFR_L861Q 0 | EGFR_T790M 0 | EPHA2 = 0 | ERBB3 = 0 | [1] 0

N#C/C(=C\c1ccc(O)c(O)c1)C(=O)O [Tyrphostin AG30] (10 µM)
inactive: EGFR 0 | EGFR_G719S 0 | EGFR_G719S_T790M 0 | EGFR_L718V 0 | EGFR_L858R 0 | EGFR_L861Q 0 | EGFR_T790M 0 | EPHA2 = 0 | ERBB3 = 0 | [1] 0

Nc1nc2c(nc(Br)n2[C@@H]2O[C@@H]3COP(=O)(O)O[C@H]3[C@H]2O)c(=O)[nH]1 [8-Bromo-cGMP (sodium)] (10 µM)
inactive: EGFR 0 | EGFR_G719S 0 | EGFR_G719S_T790M 0 | EGFR_L718V 0 | EGFR_L858R 0 | EGFR_L861Q 0 | EGFR_T790M 0 | EPHA2 = 0 | ERBB3 = 0 | [1] 0

3 compounds already listed, ordered by heavy-atom count, high to low.
c1nn(C2CCOCC2)cc1Nc1ncc2nnn(-c3ccc4cn[nH]c4c3)c2n1 (10 µM)
inactive: EGFR 0 | EGFR_G719S 0 | EGFR_G719S_T790M 0 | EGFR_L718V 0 | EGFR_L858R 0 | EGFR_L861Q 0 | EGFR_T790M 0 | EPHA2 = 0 | ERBB3 = 0 | [1] 0

Nc1nc2c(nc(Br)n2[C@@H]2O[C@@H]3COP(=O)(O)O[C@H]3[C@H]2O)c(=O)[nH]1 [8-Bromo-cGMP (sodium)] (10 µM)
inactive: EGFR 0 | EGFR_G719S 0 | EGFR_G719S_T790M 0 | EGFR_L718V 0 | EGFR_L858R 0 | EGFR_L861Q 0 | EGFR_T790M 0 | EPHA2 = 0 | ERBB3 = 0 | [1] 0

Cc1cc(C)cc(NC(N)=Nc2ccccc2C(F)(F)F)c1 (10 µM)
inactive: EGFR 0 | EGFR_G719S 0 | EGFR_G719S_T790M 0 | EGFR_L718V 0 | EGFR_L858R 0 | EGFR_L861Q 0 | EGFR_T790M 0 | EPHA2 = 0 | ERBB3 = 0 | [1] 0

Later entries.

COc1ccc(-c2cc(=O)c3c(OC)cc(OC)c(OC)c3o2)cc1 [6-Demethoxytangeretin] (10 µM)
inactive: EGFR 0 | EGFR_G719S 0 | EGFR_G719S_T790M 0 | EGFR_L718V 0 | EGFR_L858R 0 | EGFR_L861Q 0 | EGFR_T790M 0 | EPHA2 = 0 | ERBB3 = 0 | [1] 0

CNC(=O)CNc1cnc2ccc(-c3ccc(OC)c(OC)c3)cc2n1 (10 µM)
inactive: EGFR 0 | EGFR_G719S 0 | EGFR_G719S_T790M 0 | EGFR_L718V 0 | EGFR_L858R 0 | EGFR_L861Q 0 | EGFR_T790M 0 | EPHA2 = 0 | ERBB3 = 0 | [1] 0

CC(C)=CC[C@@H](O)C1=CC(=O)c2c(O)ccc(O)c2C1=O [Shikonin] (10 µM)
inactive: EGFR 0 | EGFR_G719S 0 | EGFR_G719S_T790M 0 | EGFR_L718V 0 | EGFR_L858R 0 | EGFR_L861Q 0 | EGFR_T790M 0 | EPHA2 = 0 | ERBB3 = 0 | [1] 0
